{"source": "the supplement of paper PMC3334620", "note": "In all, about 33,000 sequences were measured (“E-score (-0.5 to 0.5)”: median about -0.0059, highest 2% from about 0.26 on). This is one part of the list.", "data": [{"molecular_target": "T1, Cin5 (UniProt P40917)", "T1 sequence": "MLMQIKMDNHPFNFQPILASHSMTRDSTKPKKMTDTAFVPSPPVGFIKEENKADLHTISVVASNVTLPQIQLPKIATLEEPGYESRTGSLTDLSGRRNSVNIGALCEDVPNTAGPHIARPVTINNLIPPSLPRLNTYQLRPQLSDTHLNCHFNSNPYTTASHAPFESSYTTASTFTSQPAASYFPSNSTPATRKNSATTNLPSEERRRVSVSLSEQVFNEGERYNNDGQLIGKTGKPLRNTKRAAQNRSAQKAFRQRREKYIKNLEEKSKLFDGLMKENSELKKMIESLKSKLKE", "assay": "PBM E-score (8-mer binding enrichment) (E-score (-0.5 to 0.5)); higher = stronger / more preferred TF binding", "conditions": "protein concentration: 100 nM; construct: GST-full length", "summary_of_the_method": "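Bound GST-tagged yeast transcription factors, applied at about 100-200 nM to double-stranded universal all-10-mer Agilent arrays, were detected with fluorescent anti-GST. Scans were normalised with masliner. A modified Wilcoxon-Mann-Whitney statistic, the E-score, was assigned to each ungapped eight-base word pooled with its reverse complement by the Universal PBM Analysis Suite.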", "values": [{"sequence": "CTCATGTC", "PBM E-score": -0.141}, {"sequence": "GCAGGTGA", "PBM E-score": -0.00692}, {"sequence": "AACGGCTT", "PBM E-score": -0.0579}, {"sequence": "AGCCATGG", "PBM E-score": -0.187}, {"sequence": "TAAACCGA", "PBM E-score": -0.0557}, {"sequence": "AGCCCTGC", "PBM E-score": -0.166}, {"sequence": "GTTCGTCA", "PBM E-score": -0.129}, {"sequence": "AGGGCCAT", "PBM E-score": -0.105}, {"sequence": "CGTGGGGA", "PBM E-score": -0.0867}, {"sequence": "CCGATCAC", "PBM E-score": 0.048}, {"sequence": "CTAGGGCC", "PBM E-score": -0.192}, {"sequence": "GCTAAGAC", "PBM E-score": -0.0441}, {"sequence": "CAAGCTCG", "PBM E-score": -0.0314}, {"sequence": "CCGTTGGC", "PBM E-score": -0.124}, {"sequence": "ATAAACGC", "PBM E-score": -0.0761}, {"sequence": "CTGTATCC", "PBM E-score": 0.0454}, {"sequence": "ATACCCTA", "PBM E-score": 0.0962}, {"sequence": "AATCTCTA", "PBM E-score": 0.171}, {"sequence": "CGTTGCAA", "PBM E-score": 0.045}, {"sequence": "CACCGCCG", "PBM E-score": -0.185}, {"sequence": "CAATATGA", "PBM E-score": 0.118}, {"sequence": "AGTAGACC", "PBM E-score": -0.00144}, {"sequence": "CACCCCTA", "PBM E-score": 0.0576}, {"sequence": "CTGCCTGC", "PBM E-score": -0.203}, {"sequence": "CCGGAGTC", "PBM E-score": 0.014}, {"sequence": "CGGACCTC", "PBM E-score": -0.228}, {"sequence": "GCTATAGA", "PBM E-score": -0.0994}, {"sequence": "GATGCGGC", "PBM E-score": -0.197}, {"sequence": "AGTTTAAC", "PBM E-score": -0.0624}, {"sequence": "CGAGACTA", "PBM E-score": 0.0429}, {"sequence": "CGCTTGGC", "PBM E-score": -0.268}, {"sequence": "GCAGGGGA", "PBM E-score": -0.215}, {"sequence": "AGCCTGGC", "PBM E-score": -0.163}, {"sequence": "CGGAACGC", "PBM E-score": 0.0289}, {"sequence": "GTAGCCCA", "PBM E-score": -0.129}, {"sequence": "ACACGTTG", "PBM E-score": -0.238}, {"sequence": "AGAAACGA", "PBM E-score": 0.127}, {"sequence": "ATGCCCCG", "PBM E-score": -0.148}, {"sequence": "ACATCCCC", "PBM E-score": 0.126}, {"sequence": "CCCCCAAA", "PBM E-score": -0.379}, {"sequence": "TACCGCAA", "PBM E-score": 0.0544}, {"sequence": "CCTCTGAG", "PBM E-score": -0.107}, {"sequence": "ACGGTGAG", "PBM E-score": -0.0402}, {"sequence": "CATCCTGA", "PBM E-score": 0.0709}, {"sequence": "CCATGGTA", "PBM E-score": 0.028}, {"sequence": "GAGATCGC", "PBM E-score": -0.0568}, {"sequence": "AAAGACAG", "PBM E-score": 0.199}, {"sequence": "CCCAGTAG", "PBM E-score": -0.0994}, {"sequence": "GGCATAAA", "PBM E-score": 0.0228}, {"sequence": "GTAGGAGA", "PBM E-score": -0.185}, {"sequence": "AGAGGGCG", "PBM E-score": -0.0549}, {"sequence": "ACAGTGAA", "PBM E-score": 0.0426}, {"sequence": "GACCTGAC", "PBM E-score": 0.0377}, {"sequence": "GAGGCCCA", "PBM E-score": -0.251}, {"sequence": "AGCCCCTA", "PBM E-score": -0.163}, {"sequence": "AATGTACC", "PBM E-score": -0.0742}, {"sequence": "TGAACTAA", "PBM E-score": 0.0395}, {"sequence": "AAGTTATC", "PBM E-score": 0.147}, {"sequence": "CTCGAGAG", "PBM E-score": -0.0194}, {"sequence": "GGATAACC", "PBM E-score": -0.0816}, {"sequence": "CCTACTCA", "PBM E-score": -0.0393}, {"sequence": "CGTTTCCC", "PBM E-score": -0.0818}, {"sequence": "CGCGACAG", "PBM E-score": -0.0201}, {"sequence": "CGCACAGA", "PBM E-score": -0.0574}, {"sequence": "CTCCGTAA", "PBM E-score": -0.0215}, {"sequence": "CCCATCTC", "PBM E-score": 0.0223}, {"sequence": "AAGCGGAG", "PBM E-score": -0.133}, {"sequence": "CCCTTGAC", "PBM E-score": -0.232}, {"sequence": "CAACTATG", "PBM E-score": 0.176}, {"sequence": "CAGGACTA", "PBM E-score": -0.0704}, {"sequence": "CGATTTCA", "PBM E-score": 0.0165}, {"sequence": "CTCGTTTA", "PBM E-score": 0.0384}, {"sequence": "CGTTTCCA", "PBM E-score": 0.0865}, {"sequence": "AAGATCTT", "PBM E-score": 0.0707}, {"sequence": "CGGCGTCA", "PBM E-score": -0.0143}, {"sequence": "CTTTTTAA", "PBM E-score": -0.0274}, {"sequence": "CTCTGCAG", "PBM E-score": -0.125}, {"sequence": "ACAAGCGG", "PBM E-score": 0.175}, {"sequence": "AATAGACC", "PBM E-score": -0.0281}, {"sequence": "ACCGTAAT", "PBM E-score": 0.223}, {"sequence": "GATGTCAC", "PBM E-score": 0.159}, {"sequence": "ATGAGAAC", "PBM E-score": 0.129}, {"sequence": "ATCATGAC", "PBM E-score": 0.233}, {"sequence": "ACTATCAA", "PBM E-score": 0.187}, {"sequence": "CCAGCCGA", "PBM E-score": -0.18}, {"sequence": "CGGAACTC", "PBM E-score": 0.0803}, {"sequence": "CACCGTAC", "PBM E-score": -0.0221}, {"sequence": "AAATCCTG", "PBM E-score": 0.016}, {"sequence": "CATGCTTA", "PBM E-score": 0.259}, {"sequence": "TCTAATCA", "PBM E-score": 0.231}, {"sequence": "GGATTTTA", "PBM E-score": -0.0448}, {"sequence": "CTACGTAG", "PBM E-score": 0.0359}, {"sequence": "AAGCGTCT", "PBM E-score": -0.221}, {"sequence": "AGGCCTTA", "PBM E-score": -0.154}, {"sequence": "CAATGACG", "PBM E-score": -0.163}, {"sequence": "TATTATCA", "PBM E-score": 0.242}, {"sequence": "ATGTAAGC", "PBM E-score": 0.431}, {"sequence": "CCTAAAGA", "PBM E-score": -0.182}, {"sequence": "GTAATCGA", "PBM E-score": 0.275}, {"sequence": "TGGAAACA", "PBM E-score": 0.13}, {"sequence": "GAGATTCA", "PBM E-score": 0.0245}, {"sequence": "AGTGGCTA", "PBM E-score": -0.097}, {"sequence": "ACGAACAC", "PBM E-score": -0.0117}, {"sequence": "ATGTGATC", "PBM E-score": 0.129}, {"sequence": "CGTATAAA", "PBM E-score": 0.168}, {"sequence": "GCCTATCA", "PBM E-score": 0.074}, {"sequence": "ATATAGGA", "PBM E-score": 0.136}, {"sequence": "GCGGGGGA", "PBM E-score": -0.268}, {"sequence": "ATCACTTG", "PBM E-score": 0.0196}]}]}
